The values below come from publication PMC7146716.

These are yes or no findings as the source states them, for the method shown. In cells and extracts the contact can be indirect. These calls come from enrichment with a bait or labelling near it, and not all partners need be listed.

The assay addresses Flag-tagged TRIM62 (tripartite motif containing 62), chicken (chicken). Put plainly: affinity purification with mass spectrometry; anti-Flag antibody on AminoLink coupling resin (Pierce Co-IP kit); lysate of pTRIM62-transfected CEF cells infected with REV for 72 h; washed three times with RIPA lysis buffer; eluate run on SDS-PAGE, trypsin digestion, LC-MS; control: empty vector, REV-infected.

B1: Apolipoprotein A-I (protein, UniProt P08250 19-264)
chain: RSFWQHDEPQTPLDRIRDMVDVYLETVKASGKDAIAQFESSAVGKQLDLKLADNLDTLSAAAAKLREDMAPYYKEVREMWLKDTEALRAELTKDLEEVKEKIRPFLDQFSAKWTEELEQYRQRLTPVAQELKELTKQKVELMQAKLTPVAEEARDRLRGHVEELRKNLAPYSDELRQKLSQKLEEIREKGIPQASEYQAKVMEQLSNLREKMTPLVQEFRERLTPYAENLKNRLISFLDELQKSVA
Take B1: the binding result is on record as “binds”.

B2: Ras-related protein Rab-5b (protein, UniProt Q5ZHW4 1-215)
chain: MTSRGAARPNGQSQASKICQFKLVLLGESAVGKSSLVLRFVKGQFHEYQESTIGAAFLTQSVCLDDTTVKFEIWDTAGQERYHSLAPMYYRGAQAAIVVYDITNQETFARAKTWVKELQRQASPSIVIALAGNKADLASKRMVEYEEAQAYADDNSLLFMETSAKTAMNVNDLFLAIAKKLPKSEPQSTSGAAGRSRGVDLHEQTQQNKSQCCSN
As to B2, the binding entry is reported as “binds”.
